The other results are listed elsewhere or left out. These are further read-outs of the screen, such as a control signal, another cell line or another target. No call is given for them. Most of these compounds were active or inconclusive in the main read-out, so they are no random draw. Words in brackets tell the shape of the fitted curve; partial curves, single points and poor fits give uncertain potencies.
Assay: qHTS Assay to Find Inhibitors of Chronic Active B-Cell Receptor Signaling
Conditions: ABC-DLBCL IkBa-CBG/CBR reporter, luminescence ratio (green luciferase fused to IkBa over red control in TMD8 lymphoma cells), 4 h
In short: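 Cell line TMD8 (human ABC DLBCL), stably expressing tet-inducible CBG68-IkBa fusion and CBR; IMDM/0.5% FBS; cpd up to 46 uM; dox induction, 4 h, 37C/5% CO2; dual luminescence; green/red ratio; MG132 control.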

[1] = measured here: CBR red luminescence, cell number
[2] = measured here: IkBa-CBG green luminescence

Row | SMILES | AC50 [1] | AC50 [2]
1 | CCN(CC)S(=O)(=O)c1ccc2oc(SCC3CN=C(c4ccc(OC)cc4)S3)nc2c1 (centres undefined) | 3.16 µM [rising, partial curve, poor fit] | –
2 | NC(=O)/C=C\C(=O)Nc1cccc(C(F)(F)F)c1 | 11.2 µM [falling, partial curve, poor fit] | –
3 | CCN(CC)C(=O)c1[nH]cnc1C(=O)N[C@@H](CC(C)C)C(=O)OCc1ccccc1 | 1.26 µM [falling, full curve, poor fit] | –
4 | O=[N+]([O-])c1ccc(NC(=S)NCc2ccc(F)cc2)cc1 | 25.1 µM [falling, single point] | –
5 | O=[N+]([O-])c1cccnc1SCc1c(F)cccc1Cl | – | 11.2 µM [falling, partial curve]
6 | COc1ccccc1-c1nnc(NC(=O)c2ccccc2F)o1 | 8.2 µM [falling, partial curve, poor fit] | –
7 | Cc1ccc(CC(=O)Nc2ccc(F)c([N+](=O)[O-])c2)cc1C | – | 15.8 µM [rising, partial curve, poor fit]
8 | COc1cccc(NC(=O)[C@H](CC(C)C)NC(=O)[C@@H]2Cc3ccccc3CN2)c1 | 0.112 µM [falling, full curve, poor fit] | –
9 | O=C(NCc1ccccc1)c1cccc(NC(=O)c2ccco2)c1 | 12.6 µM [falling, partial curve, poor fit] | –
10 | Cc1cccc(-n2ncc3c(NNC(=O)c4ccco4)ncnc32)c1 | 0.891 µM [falling, full curve] | –
11 | Cc1ccc(C(=O)C(C)Oc2ccc3ccc(=O)oc3c2)cc1 (centres undefined) | 15.8 µM [falling, single point] | –
12 | COc1cc(/C=N/NC(=O)c2ccc3nc[nH]c3c2)cc(OC)c1OC | 35.5 µM [falling, single point] | –
13 | O=C(CSc1ccccc1)NCCCc1ccccc1 | 1.58 µM [rising, full curve] | –
14 | N#Cc1ccsc1NC(=O)COC(=O)c1cc(Br)ccc1O | 11.2 µM [falling, partial curve, poor fit] | –
15 | Cc1ccc(C(=O)c2cncc(Br)c2)cc1 | 4.61 µM [falling, partial curve, poor fit] | –
16 | Cc1ccc(S(=O)(=O)N2CCC(C(=O)NCc3ccncc3)CC2)cc1 | 3.66 µM [falling, single point] | –
17 | COc1cccc(C(=O)NC(=S)Nc2ccccc2N2CCCCC2)c1 | 22.4 µM [rising, single point] | –
18 | CCOc1c(OC(C)=O)ccc(/C=C/c2ccc3cccc(OC(C)=O)c3n2)c1[N+](=O)[O-] | 35.5 µM [falling, single point] | 35.5 µM [rising, partial curve, poor fit]

Not a retest: two of the compounds above.
Row | SMILES | AC50 [1] | AC50 [2]
6 | COc1ccccc1-c1nnc(NC(=O)c2ccccc2F)o1 | 8.2 µM [falling, partial curve, poor fit] | –
7 | Cc1ccc(CC(=O)Nc2ccc(F)c([N+](=O)[O-])c2)cc1C | – | 15.8 µM [rising, partial curve, poor fit]

From PubChem BioAssay AID493014 (National Center for Advancing Translational Sciences (NCATS), 2011)
